Data from patent US20210147812A1, “Method of Preparing Cancer Spheroid and Method of Selecting Colorectal Cancer Patient” (Kyo Diagnostics K.K., priority 2017, published 2021).

Experiments:
[1] = test system: spheroid lines HC6T, HC9T, and HC20T; test: Drug sensitivity tests in spheroids (GEI); format: cell-based; conditions: Homo sapiens, read-out: IC50 of spheroid growth
Protocol: (§1) Luciferase-expressing spheroids were cultured in 2-3 wells of a 12-well cell-culture plate (in 60-90 μl Matrigel). […] From the spheroid solution thus obtained, 300 μl was taken and the cells were resuspended in an equal volume of Matrigel. The spheroid cells in Matrigel were distributed to the wells of 96-well “white” cell-culture plates (Corning; 3 μl per well) on a plate heater at 37° C., and cultured overnight in 100 μl/well of the medium. Spheroids were rinsed with 100 μl/well of PBS, and incubated with 50 μl of 150 μg/ml luciferin in phenol red-free DMEM/F12 medium (Nacalai) for 10 min at room temperature (20-28° C.). Luminescence was scored using a conventional imaging device (Gel Doc XR+, BioRad). After this initial measurement, spheroids in each well were rinsed with 100 μl of PBS, and cultured in 100 μl of the medium. Luminescence was determined on day 1 and day 3. Effects of a drug was determined by obtaining GEI (growth effect index), which is the growth rate of a group treated with the drug compared to a control group (a solvent-treated group). Results were shown using means in three independent experiments each conducted in triplicate.
The spheroid lines shown in Table 3 were used in this example.

[2] = test system: six spheroid lines that did not depend on bFGF (HC1T, HC10T, HC11T, HC73T, HC5T and HC13T); conditions: clinically relevant doses (0.01-1 μM)
Protocol: as §1

COc1cc(OC)cc(N(CCNC(C)C)c2ccc3ncc(-c4cnn(C)c4)nc3c2)c1 [erdafitinib]
IC50 [1]: 2.2 to 3.1 nM | growth inhibition [2]: no growth inhibition
